Measured values as given in article PMC5173105.
These are yes or no findings as the source states them, for the method shown. Binding seen in cells or lysates may run through a third protein. Some entries that bind do so weakly or less than the wild type. Values belong to the binder of their own block, whether it stands above or below them.

By UniProt entry, the sequences of proteins in these tests, tags left out. Where a name states a change or a piece, a line headed by the entry shows the natural chain unless it says otherwise.
UniProt O94817: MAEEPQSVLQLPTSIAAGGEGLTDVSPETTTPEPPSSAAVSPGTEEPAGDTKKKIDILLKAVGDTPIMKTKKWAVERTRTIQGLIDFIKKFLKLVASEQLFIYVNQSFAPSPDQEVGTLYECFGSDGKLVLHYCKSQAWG
UniProt Q9H1Y0: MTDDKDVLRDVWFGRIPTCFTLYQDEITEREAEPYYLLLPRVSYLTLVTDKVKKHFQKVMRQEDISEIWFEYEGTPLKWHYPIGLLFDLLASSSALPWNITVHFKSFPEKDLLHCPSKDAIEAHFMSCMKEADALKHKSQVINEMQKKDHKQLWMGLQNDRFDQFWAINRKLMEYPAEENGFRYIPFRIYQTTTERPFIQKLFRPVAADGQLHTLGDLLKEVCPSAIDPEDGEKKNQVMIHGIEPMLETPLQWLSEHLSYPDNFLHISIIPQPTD

Biological target: ATG12/ATG5 complex (human (endogenous in Mino)) (UniProt O94817+Q9H1Y0)
Test: co-IP; ATG12 immunoprecipitated overnight with 5 ug anti-Atg12 (6E5) mouse monoclonal antibody and protein A-Sepharose CL4B from 150 ug total lysate of plain and PLSCR1-expressing Mino cells, treated or not with RA/IFN-α for 72 hours; washed three times with lysis buffer; immunoblotting

binding: binds
B1: phospholipid scramblase 1 (PLSCR1), endogenous, induced by RA/IFN-α (protein, UniProt O15162 1-318)
chain: MDKQNSQMNASHPETNLPVGYPPQYPPTAFQGPPGYSGYPGPQVSYPPPPAGHSGPGPAGFPVPNQPVYNQPVYNQPVGAAGVPWMPAPQPPLNCPPGLEYLSQIDQILIHQQIELLEVLTGFETNNKYEIKNSFGQRVYFAAEDTDCCTRNCCGPSRPFTLRIIDNMGQEVITLERPLRCSSCCCPCCLQEIEIQAPPGVPIGYVIQTWHPCLPKFTIQNEKREDVLKISGPCVVCSCCGDVDFEIKSLDEQCVVGKISKHWTGILREAFTDADNFGIQFPLDLDVKMKAVMIGACFLIDFMFFESTGSQEQKSGVW

binding: binds
B2: ectopic PLSCR1 (pQCXIP-PLSCR1) in Mino cells (protein, UniProt O15162 1-318)
chain: B1 chain
